# Experimental data taken from article PMC7819943, “Rice protein-binding microarrays: a tool to detect cis-acting elements near promoter regions in rice”.
# The other results are listed elsewhere or left out.
# Biological target: T1, OsSMF1 (Oryza sativa, UniProt Q6ZLB0 1-436)
# T1 sequence: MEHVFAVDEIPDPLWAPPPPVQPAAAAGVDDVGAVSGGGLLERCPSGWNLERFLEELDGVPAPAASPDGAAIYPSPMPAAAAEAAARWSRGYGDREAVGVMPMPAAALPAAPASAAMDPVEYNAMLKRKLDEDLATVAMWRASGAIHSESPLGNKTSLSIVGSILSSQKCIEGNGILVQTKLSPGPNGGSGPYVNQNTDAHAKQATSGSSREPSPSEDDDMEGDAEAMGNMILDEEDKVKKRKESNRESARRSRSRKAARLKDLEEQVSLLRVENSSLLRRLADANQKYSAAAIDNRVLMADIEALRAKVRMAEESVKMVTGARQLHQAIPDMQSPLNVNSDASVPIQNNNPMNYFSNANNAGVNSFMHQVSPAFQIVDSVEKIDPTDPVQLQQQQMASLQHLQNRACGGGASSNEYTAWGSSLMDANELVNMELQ
# Assay: protein-binding microarray (RPBM); PBS, 2% BSA, 51.3 ng/ul salmon testes DNA, 50 uM zinc acetate, 200 nM TF, 25 C, 1 h; high values mean tight binding
# Settings: protein: recombinant; tags: N-terminal polyhistidine and DsRed monomer fusion (pET32a); chain copies: 2; label: CyDye5-dUTP incorporated in the synthesized complementary strand; 3' TTTTT single-stranded linker to array surface; dsDNA, one strand shown
# In short: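 Per-feature fluorescence intensity (arbitrary units), read on an Axon 4000B scanner, is the binding signal. Transcription factors carrying an N-terminal polyhistidine tag and DsRed fusion were expressed in E. coli BL21-CodonPlus and purified on Ni–NTA. A custom Agilent array, made double-stranded by primer extension with Cy5-dUTP and blocked with 2% BSA, was incubated with 200 nM protein in PBS, 2% BSA, salmon testes DNA and 50 µM zinc acetate at 25 °C for 1 h and then washed.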
row,Sequence,binding signal
1,CTACTATACCACAGTATATTATCTTTTGGGGTTTGAAAGTCGGAGTCACCTAGTGCAG,16900 fluorescence intensity (a.u.)
2,TCCTCCCCAACATACTAGGAAGGAGCTTTGGTTTGGTTCGCGGAGTCACCTAGTGCAG,9120 fluorescence intensity (a.u.)
3,GCATGACTCGGTCGGGTGGCTAGTGTGGATCTAGATCTGGCGGAGTCACCTAGTGCAG,29400 fluorescence intensity (a.u.)
4,TCCAAATGAGTCAAATTTAAGATCTGCGGAGGCACCTTCCCGGAGTCACCTAGTGCAG,3480 fluorescence intensity (a.u.)
5,ACACACTAACACACCTTACTACTACAAGCTGCAGCTGGCACGGAGTCACCTAGTGCAG,3510 fluorescence intensity (a.u.)
6,CCTGAGATGGAGGCCGATCCTGTCATCATCGACACCGATGCGGAGTCACCTAGTGCAG,4230 fluorescence intensity (a.u.)
7,TGACCTAGCTAGCTACCTTTTCCCTCTTCCATCACATATACGGAGTCACCTAGTGCAG,3800 fluorescence intensity (a.u.)
8,AACCTTCGTGATGTGGACAGATCATGGGCGAGTACGGTCGCGGAGTCACCTAGTGCAG,6120 fluorescence intensity (a.u.)
9,AATATAAGTGAATCTTCTCCGATGATGACGTATGAGGTGACGGAGTCACCTAGTGCAG,7220 fluorescence intensity (a.u.)
10,ATCAATTTATCACCCGCTGACTCATCTTTATTGTATCTGCCGGAGTCACCTAGTGCAG,24300 fluorescence intensity (a.u.)
11,CCAACCCTGACAGACAAACAAGCGGAGTATGAGCCGTCGGCGGAGTCACCTAGTGCAG,4110 fluorescence intensity (a.u.)
12,CCCCGGCCGCCGCACGTGGCCACAGCTCAGCACACGTACGCGGAGTCACCTAGTGCAG,8880 fluorescence intensity (a.u.)
13,GAAACCAATCCACACAAACAACCACCTGATAGCTAAGCTACGGAGTCACCTAGTGCAG,21300 fluorescence intensity (a.u.)
14,GATAATTAACAGTACATCTTGATCCGGACTGGCCGGCCTTCGGAGTCACCTAGTGCAG,4560 fluorescence intensity (a.u.)
15,AGGTGTCTTCTCAAACATCACGCTGGAATCCTTGGTTGGGCGGAGTCACCTAGTGCAG,3270 fluorescence intensity (a.u.)
16,GACAATGCAATCTTACTCCTACTTGCTGGTTATGAGACATCGGAGTCACCTAGTGCAG,3660 fluorescence intensity (a.u.)
17,ACCTCGCACACGTGGCGCCAACGTGGCAATCTAACCAGCACGGAGTCACCTAGTGCAG,22700 fluorescence intensity (a.u.)
18,TCTTTCTCTTTCCTCATTTATTCACTTGCCACATCATTTTCGGAGTCACCTAGTGCAG,6190 fluorescence intensity (a.u.)
19,CCTCTCAGTCTCAACCCTGTGTGTTGGTGTTTTCTGTCTTCGGAGTCACCTAGTGCAG,3280 fluorescence intensity (a.u.)
20,AAGAAAGACGTGCAGTGACAATGATGTCATCATATAGGATCGGAGTCACCTAGTGCAG,6680 fluorescence intensity (a.u.)
21,GATATTAATATTATAGTATACGTGGTTGAGAGGTAACTATCGGAGTCACCTAGTGCAG,4840 fluorescence intensity (a.u.)

# Reformatted: entries from further up.
row	Sequence	binding signal
3	GCATGACTCGGTCGGGTGGCTAGTGTGGATCTAGATCTGGCGGAGTCACCTAGTGCAG	29400 fluorescence intensity (a.u.)
4	TCCAAATGAGTCAAATTTAAGATCTGCGGAGGCACCTTCCCGGAGTCACCTAGTGCAG	3480 fluorescence intensity (a.u.)
6	CCTGAGATGGAGGCCGATCCTGTCATCATCGACACCGATGCGGAGTCACCTAGTGCAG	4230 fluorescence intensity (a.u.)
7	TGACCTAGCTAGCTACCTTTTCCCTCTTCCATCACATATACGGAGTCACCTAGTGCAG	3800 fluorescence intensity (a.u.)
12	CCCCGGCCGCCGCACGTGGCCACAGCTCAGCACACGTACGCGGAGTCACCTAGTGCAG	8880 fluorescence intensity (a.u.)
13	GAAACCAATCCACACAAACAACCACCTGATAGCTAAGCTACGGAGTCACCTAGTGCAG	21300 fluorescence intensity (a.u.)
14	GATAATTAACAGTACATCTTGATCCGGACTGGCCGGCCTTCGGAGTCACCTAGTGCAG	4560 fluorescence intensity (a.u.)
16	GACAATGCAATCTTACTCCTACTTGCTGGTTATGAGACATCGGAGTCACCTAGTGCAG	3660 fluorescence intensity (a.u.)
17	ACCTCGCACACGTGGCGCCAACGTGGCAATCTAACCAGCACGGAGTCACCTAGTGCAG	22700 fluorescence intensity (a.u.)
18	TCTTTCTCTTTCCTCATTTATTCACTTGCCACATCATTTTCGGAGTCACCTAGTGCAG	6190 fluorescence intensity (a.u.)
19	CCTCTCAGTCTCAACCCTGTGTGTTGGTGTTTTCTGTCTTCGGAGTCACCTAGTGCAG	3280 fluorescence intensity (a.u.)
20	AAGAAAGACGTGCAGTGACAATGATGTCATCATATAGGATCGGAGTCACCTAGTGCAG	6680 fluorescence intensity (a.u.)
21	GATATTAATATTATAGTATACGTGGTTGAGAGGTAACTATCGGAGTCACCTAGTGCAG	4840 fluorescence intensity (a.u.)

# (list continues)

row,Sequence,binding signal
1,GTGGCCACGTGACATTGGCAAGGAGAGGGTAGTGGCCAGTCGGAGTCACCTAGTGCAG,4030 fluorescence intensity (a.u.)
2,GATAATTTTCCCGCTAGGCGCCACGACGGAACGGGCGCTACGGAGTCACCTAGTGCAG,4650 fluorescence intensity (a.u.)
3,GGTGGAAGAAGGGAAGGATAGATGATGTCATGTGGACCTCCGGAGTCACCTAGTGCAG,6380 fluorescence intensity (a.u.)
4,AAACTCTCTTCTGCATTGCACAACTAGTCACATCGAGTCACGGAGTCACCTAGTGCAG,3620 fluorescence intensity (a.u.)
5,ATACTATGTTAATTTGTCTGTGTCCTAATGACGCACCATACGGAGTCACCTAGTGCAG,4820 fluorescence intensity (a.u.)
6,TTATTGGTGGATGCCTCTGAGTCGGATGTGGGTCGTACAACGGAGTCACCTAGTGCAG,3660 fluorescence intensity (a.u.)
7,GCATAGGGTTGCGGGAGATCTAGAGGTTGGAGAACACCGCCGGAGTCACCTAGTGCAG,13000 fluorescence intensity (a.u.)
8,GCATGGCGATGGTTTGACGAACGTGTCAAACCCCAAATCCCGGAGTCACCTAGTGCAG,3740 fluorescence intensity (a.u.)
9,AATAATTTATGAATAAAACTTTTATATACGTGTCCTTAGCCGGAGTCACCTAGTGCAG,6120 fluorescence intensity (a.u.)
10,CAGAGTGGGCCCACATGTCAGTGACTCAAAGCCATGTGAACGGAGTCACCTAGTGCAG,3760 fluorescence intensity (a.u.)
11,TCTCCACCTGCGTCCTCGTCATCCTCCCCTAGACAGACAACGGAGTCACCTAGTGCAG,6080 fluorescence intensity (a.u.)
12,CCAAAATCAGATATCTTAGGATTCATATCGATGTCCAACACGGAGTCACCTAGTGCAG,19200 fluorescence intensity (a.u.)
13,TGAAATTTGAACCAAGTAATCAACCACGTGTTTGCCCGATCGGAGTCACCTAGTGCAG,3840 fluorescence intensity (a.u.)
14,TGCTTTGCATCTGCACACGTAGCCCTCTCCCATGAACCTGCGGAGTCACCTAGTGCAG,4520 fluorescence intensity (a.u.)
15,TTTGATGATGTGGCGCATCCTGGTACCAGAAAGCTTGTTGCGGAGTCACCTAGTGCAG,10000 fluorescence intensity (a.u.)
16,TCCAAACTTGCCAGACGACCAGGATGACTATCGCATTTCCCGGAGTCACCTAGTGCAG,22000 fluorescence intensity (a.u.)
17,ATTTAGCAGATGAGATGAGTGACATAAGCAGATATCTCCACGGAGTCACCTAGTGCAG,15200 fluorescence intensity (a.u.)
18,CTAACTACTGACGCAGGCATCTATTTGTTAAATTGCATTCCGGAGTCACCTAGTGCAG,4350 fluorescence intensity (a.u.)
19,GTCTACCTCTTCCAGGACAGGTGGAACCACGTCGTGCGGCCGGAGTCACCTAGTGCAG,6510 fluorescence intensity (a.u.)
20,GTACGCCACTGGCCACGTAACGTAACGTGCCCGTCCGCTTCGGAGTCACCTAGTGCAG,22500 fluorescence intensity (a.u.)
21,TGGAAGCGAGAGAGAGGGAGGGAGGAGGGAGGCAATTGGTCGGAGTCACCTAGTGCAG,3200 fluorescence intensity (a.u.)
